Earlier results as cited in patent US20070093743A1, “Iontophoresis Drug Delivery Device Providing Acceptable Depth and Duration of Dermal Anesthesia” (Vyteris, Inc., priority 2005, published 2007).
Some entries share one result that the patent states for a list of compounds.

Conditions: without epinephrine

CCCCN1CCCCC1C(=O)Nc1c(C)cccc1C (stereo not drawn) [bupivacaine]
duration of effects: 3 to 4 h

CCN(CC)CCOC(=O)c1ccc(N)cc1Cl [chloroprocaine]
duration of effects: less than 2 hr

CCCN(CC)C(CC)C(=O)Nc1c(C)cccc1C (stereo not drawn) [etidocaine]
duration of effects: 3 to 4 h

Cc1cccc(C)c1NC(=O)C1CCCCN1C (stereo not drawn) [mepivacaine]
duration of effects: 3 to 4 h

CCCNC(C)C(=O)Nc1ccccc1C (stereo not drawn) [prilocaine]
duration of effects: less than 2 hr

CCN(CC)CCOC(=O)c1ccc(N)cc1 [procaine]
duration of effects: less than 2 hr
